Reference: patent US7160907B2, “Pleuromutilin derivatives” (SmithKline Beecham P.L.C., priority 2000, dated 2007)
Some of these results come from one statement about several compounds together. At least one compound was matched to its structure with a doubt left.

What was measured:
Type in all cases: cell-based
[1] = tested on: Staphylococcus aureus Oxford; assay: conventional MIC assay, Staphylococcus aureus Oxford; conditions: against Staphylococcus aureus Oxford
Procedure: (§1) Compounds of the present invention were assessed for anti-bacterial activity in a conventional MIC assay against a range of pathogenic organisms.

[2] = tested on: Streptococcus pneumoniae 1629; assay: conventional MIC assay, Streptococcus pneumoniae 1629; conditions: against Streptococcus pneumoniae 1629
Procedure: as §1

[3] = tested on: Moraxella catarrhalis 1502; assay: conventional MIC assay, Moraxella catarrhalis 1502; conditions: against Moraxella catarrhalis 1502
Procedure: as §1

[4] = tested on: Haemophilus influenzae Q1; assay: conventional MIC assay, Haemophilus influenzae Q1; conditions: against Haemophilus influenzae Q1
Procedure: as §1

Measured: MIC

C=C[C@]1(C)C[C@@H](OC(=O)NC(=O)OCN2C(=O)CCC2=O)[C@]2(C)[C@H](C)CC[C@]3(CCC(=O)[C@H]32)[C@@H](C)[C@@H]1O [Example 87]
≤ 4 µg/mL: all assays above

CC[C@]1(C)C[C@@H](OC(=O)NC(=O)OC[C@H]2CCC(=O)N2)[C@]2(C)[C@H](C)CC[C@]3(CCC(=O)[C@H]32)[C@@H](C)[C@@H]1O [Example 104]
≤ 4 µg/mL: all assays above

C=C[C@]1(C)C[C@@H](OC(=O)NC(=O)OCc2cccc(=O)[nH]2)[C@]2(C)[C@H](C)CC[C@]3(CCC(=O)[C@H]32)[C@@H](C)[C@@H]1O [Example 33]
≤ 4 µg/mL: all assays above

C=CC1(C)CC(OC(=O)NC(=O)OCC2CN(S(C)(=O)=O)CCO2)C2(C)C(C)CCC3(CCC(=O)C32)C(C)C1O (mixture of isomers) [Example 107]
≤ 4 µg/mL: all assays above

C=CC1(C)CC(OC(=O)NC(=O)OC2CNCC2=NOC)C2(C)C(C)CCC3(CCC(=O)C32)C(C)C1O (stereo not drawn) [Example 77]
≤ 4 µg/mL: all assays above

C=C[C@]1(C)C[C@@H](OC(=O)NC(=O)OCC(=O)NC)[C@]2(C)[C@H](C)CC[C@]3(CCC(=O)[C@H]32)[C@@H](C)[C@@H]1O [Example 91]
≤ 4 µg/mL: all assays above

C=C[C@]1(C)C[C@@H](OC(=O)NC(=O)OCC(=O)NCC#N)[C@]2(C)[C@H](C)CC[C@]3(CCC(=O)[C@H]32)[C@@H](C)[C@@H]1O [Example 94]
≤ 4 µg/mL: all assays above

C=CC1(C)CC(OC(=O)NC(=O)OC2CNCC2C)C2(C)C(C)CCC3(CCC(=O)C32)C(C)C1O.Cl (mixture of isomers) [Example 49]
≤ 4 µg/mL: all assays above

C=CC1(C)CC(OC(=O)NC(=O)OCC2CN(C(=O)c3ccc(N)nc3)CCO2)C2(C)C(C)CCC3(CCC(=O)C32)C(C)C1O (mixture of isomers) [Example 115]
≤ 4 µg/mL: all assays above

C=C[C@]1(C)C[C@@H](OC(=O)NC(=O)OCCN(C)CC(N)=O)[C@]2(C)[C@H](C)CC[C@]3(CCC(=O)[C@H]32)[C@@H](C)[C@@H]1O [Example 79]
≤ 4 µg/mL: all assays above

C=C[C@]1(C)C[C@@H](OC(=O)NC(=O)OCCN2CCNCC2)[C@]2(C)[C@H](C)CC[C@]3(CCC(=O)[C@H]32)[C@@H](C)[C@@H]1O [Example 65]
≤ 4 µg/mL: all assays above

C=CC1(C)CC(OC(=O)NC(=O)OCC2COC(=O)N2)C2(C)C(C)CCC3(CCC(=O)C32)C(C)C1O (mixture of isomers) [Example 29]
≤ 4 µg/mL: all assays above

C=C[C@]1(C)C[C@@H](OC(=O)NC(=O)OCCO)[C@]2(C)[C@H](C)CC[C@]3(CCC(=O)[C@H]32)[C@@H](C)[C@@H]1O [Example 3]
≤ 4 µg/mL: all assays above

C=C[C@]1(C)C[C@@H](OC(=O)NC(=O)OC2CS(=O)(=O)C2)[C@]2(C)[C@H](C)CC[C@]3(CCC(=O)[C@H]32)[C@@H](C)[C@@H]1O [Example 90]
≤ 4 µg/mL: all assays above

C=CC1(C)CC(OC(=O)NC(=O)OCC(O)CO)C2(C)C(C)CCC3(CCC(=O)C32)C(C)C1O (mixture of isomers) [Example 20]
≤ 4 µg/mL: all assays above

C=CC1(C)CC(OC(=O)NC(=O)OCc2cccc(CO)n2)C2(C)C(C)CCC3(CC(O)C(=O)C32)C(C)C1O (stereo not drawn) [Example 101]
≤ 4 µg/mL: all assays above

C=C[C@]1(C)C[C@@H](OC(=O)NC(=O)OC2(C(N)=O)CC2)[C@]2(C)[C@H](C)CC[C@]3(CCC(=O)[C@H]32)[C@@H](C)[C@@H]1O [Example 82]
≤ 4 µg/mL: all assays above

C=C[C@]1(C)C[C@@H](OC(=O)NC(=O)OCCc2c(C)n[nH]c2O)[C@]2(C)[C@H](C)CC[C@]3(CCC(=O)[C@H]32)[C@@H](C)[C@@H]1O [Example 40]
≤ 4 µg/mL: all assays above

C=C[C@]1(C)C[C@@H](OC(=O)NC(=O)OC2CCC(=O)NC2)[C@]2(C)[C@H](C)CC[C@]3(CCC(=O)[C@H]32)[C@@H](C)[C@@H]1O (stereo partly drawn) [Example 84]
≤ 4 µg/mL: all assays above

C=C[C@]1(C)C[C@@H](OC(=O)NC(=O)OCCN2CCS(=O)(=O)CC2)[C@]2(C)[C@H](C)CC[C@]3(CCC(=O)[C@H]32)[C@@H](C)[C@@H]1O [Example 67]
≤ 4 µg/mL: all assays above

C=C[C@]1(C)C[C@@H](OC(=O)NC(=O)O[C@H]2CN[C@H](C(N)=O)C2)[C@]2(C)[C@H](C)CC[C@]3(CCC(=O)[C@H]32)[C@@H](C)[C@@H]1O [Example 52]
≤ 4 µg/mL: all assays above

C=C[C@]1(C)C[C@@H](OC(=O)NC(=O)OCc2ncc(CN)c(N)n2)[C@]2(C)[C@H](C)CC[C@]3(CCC(=O)[C@H]32)[C@@H](C)[C@@H]1O [Example 39]
≤ 4 µg/mL: all assays above

C=C[C@]1(C)C[C@@H](OC(=O)NC(=O)OC(C)CN(C)C)[C@]2(C)[C@H](C)CC[C@]3(CCC(=O)[C@H]32)[C@@H](C)[C@@H]1O (stereo partly drawn) [Example 78]
≤ 4 µg/mL: all assays above

C=C[C@]1(C)C[C@@H](OC(=O)NC(=O)OCSC)[C@]2(C)[C@H](C)CC[C@]3(CCC(=O)[C@H]32)[C@@H](C)[C@@H]1O [Example 89]
≤ 4 µg/mL: all assays above

C=C[C@]1(C)C[C@@H](OC(=O)NC(=O)O[C@H]2CCN[C@@H]2C(N)=O)[C@]2(C)[C@H](C)CC[C@]3(CCC(=O)[C@H]32)[C@@H](C)[C@@H]1O [Example 53]
≤ 4 µg/mL: all assays above

C=C[C@]1(C)C[C@@H](OC(=O)NC(=O)OC2COCOC2)[C@]2(C)[C@H](C)CC[C@]3(CCC(=O)[C@H]32)[C@@H](C)[C@@H]1O [Example 71]
≤ 4 µg/mL: all assays above

C=CC1(C)CC(OC(=O)NC(=O)OCC(CO)c2ccccn2)C2(C)C(C)CCC3(CCC(=O)C32)C(C)C1O (mixture of isomers) [Example 42]
≤ 4 µg/mL: all assays above

C=C[C@]1(C)C[C@@H](OC(=O)NC(=O)O[C@H]2CCN(S(C)(=O)=O)C2)[C@]2(C)[C@H](C)CC[C@]3(CCC(=O)[C@H]32)[C@@H](C)[C@@H]1O [Example 106, Mutilin 14-[N-(1-methanesulfonylpyrrolidin-3-(S)-yloxycarbonyl)]carbamate]
≤ 4 µg/mL: all assays above

C=CC1(C)CC(OC(=O)NC(=O)OCC2CCC(=O)N2)C2(C)C(C)CCC3(CCC(=O)C32)C(C)C1O (stereo not drawn) [Example 27]
≤ 4 µg/mL: all assays above

C=CC1(C)CC(OC(=O)NC(=O)OC2CCN(C(=O)CN)C2)C2(C)C(C)CCC3(CCC(=O)C32)C(C)C1O [Example 111, Mutilin 14-[N-(1-glycylpyrrolidin-3-(R)-yloxycarbonyl]carbamate]
≤ 4 µg/mL: all assays above

C=C[C@]1(C)C[C@@H](OC(=O)NC(=O)OCc2nc(C)c(C#N)c(N)n2)[C@]2(C)[C@H](C)CC[C@]3(CCC(=O)[C@H]32)[C@@H](C)[C@@H]1O [Example 38]
≤ 4 µg/mL: all assays above

C=CC1(C)CC(OC(=O)NC(=O)OC2CCN(CC(N)=O)C2)C2(C)C(C)CCC3(CCC(=O)C32)C(C)C1O (stereo not drawn) [Example 76]
≤ 4 µg/mL: all assays above

C=C[C@]1(C)C[C@@H](OC(=O)NC(=O)OCCN(C)CCO)[C@]2(C)[C@H](C)CC[C@]3(CCC(=O)[C@H]32)[C@@H](C)[C@@H]1O [Example 59]
≤ 4 µg/mL: all assays above
